Measured values as given in article PMC12527946.
Results are given in words; binding and its absence hold for the method and conditions named. Some results given as binding are weak or reduced against the parent protein; the word gives no strength.

Biological target: T1, Clu-Δ(214–238) (tail mutant TL1) (human), P10909
T1 chain: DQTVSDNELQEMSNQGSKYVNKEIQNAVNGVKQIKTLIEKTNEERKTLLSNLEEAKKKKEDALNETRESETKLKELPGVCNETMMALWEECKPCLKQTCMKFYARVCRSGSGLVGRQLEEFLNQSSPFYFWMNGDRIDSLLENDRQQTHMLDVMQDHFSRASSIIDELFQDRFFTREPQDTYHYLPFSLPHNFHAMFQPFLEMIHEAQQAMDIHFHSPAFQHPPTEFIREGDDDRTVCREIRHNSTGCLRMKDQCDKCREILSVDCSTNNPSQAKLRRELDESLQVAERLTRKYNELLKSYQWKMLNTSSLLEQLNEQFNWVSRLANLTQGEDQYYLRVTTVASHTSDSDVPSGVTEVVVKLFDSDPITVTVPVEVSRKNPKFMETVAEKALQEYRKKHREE
Assay: SEC; 10 μM Clu in 20 mM MES-NaOH pH 6.5, HEPES-NaOH pH 7.5 or Tris-HCl pH 8.5, 100 mM NaCl, 1 mM EDTA, overnight or longer on ice; Superdex-200 Increase 3.2/300 at room temperature; monomers and dimers; both purified
Conditions: remark: other sources report otherwise

B1: Clu-Δ(214–238) (tail mutant TL1), P10909 (protein)
chain: DQTVSDNELQEMSNQGSKYVNKEIQNAVNGVKQIKTLIEKTNEERKTLLSNLEEAKKKKEDALNETRESETKLKELPGVCNETMMALWEECKPCLKQTCMKFYARVCRSGSGLVGRQLEEFLNQSSPFYFWMNGDRIDSLLENDRQQTHMLDVMQDHFSRASSIIDELFQDRFFTREPQDTYHYLPFSLPHNFHAMFQPFLEMIHEAQQAMDIHFHSPAFQHPPTEFIREGDDDRTVCREIRHNSTGCLRMKDQCDKCREILSVDCSTNNPSQAKLRRELDESLQVAERLTRKYNELLKSYQWKMLNTSSLLEQLNEQFNWVSRLANLTQGEDQYYLRVTTVASHTSDSDVPSGVTEVVVKLFDSDPITVTVPVEVSRKNPKFMETVAEKALQEYRKKHREE
modifications: here or on the partner: N-glycans at N86, N103, N145, N291, N354 and N374; N-glycans at N86, N103, N145, N291, N354 and N374
With B1 as the binder, how does the binding read?
The binding was “binds”.
